From PubChem BioAssay AID504444 (National Center for Advancing Translational Sciences (NCATS), 2011)
The campaign covered roughly 360,000 compounds. About 7,500 (2.1%) were called active. The shares of active, inactive and inconclusive entries below differ from those in the screen. The call rests on the fitted dose curve; in most records, active means well fitted inhibition curve with a large enough effect; inconclusive means small, poorly fitted or top-dose-only effect, or effect the other way; inactive means flat fitted curve, though single readings scatter. Potencies beside an inconclusive call are fits to weak or partial responses and may not hold up.

assay: Nrf2 qHTS screen for inhibitors; details: A549 ARE-Fluc reporter, luciferase luminescence, 18-24 h; activity change, negative = inhibition: at 46 µM (top of the series); further: nearly all actives have a fitted effect of over 60% in size
Method in brief: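 Reporter: ARE-Fluc in A549. Exposure: 18-24 h, 37 °C, 5% CO2, 5% FBS OPTI-MEM. Readouts: fluorescent cytotoxicity (CellTiter-Fluor), then luminescent Nrf2 signal after BugLite.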
On the % scale 0 is the no-effect control and ±100 the full control effect; potency means the concentration at half of the fitted maximal effect.

Question: For CC1Cc2ccccc2N1C(=O)COC(=O)C1(c2ccccc2F)CCCC1 (stereo not given), which Potency is on record?
Answer: inconclusive: 13 µM [falling, partial curve]

Question: Which Potency does the source give for COc1cccc(NC(=O)C2=C(C)C(=O)OC23CCN(C(C)=O)CC3)c1 here?
Answer: inconclusive: 29.1 µM [activator, single point]

Question: For CCC(=O)N1c2ccc(S(=O)(=O)NCc3ccc(F)cc3)cc2CC1C (stereo not given), which Potency is on record?
Answer: inconclusive: 18.4 µM [falling, single point]

Question: Which Potency does the source give for Cc1cc2cc(CN(Cc3cccs3)C(=S)NCC3CCCO3)c(=O)[nH]c2cc1C (stereo not given) here?
Answer: inconclusive: 23.1 µM [falling, single point]

Question: For C#CC(C)(CC)NC(=O)c1cc2cccc(CC=C)c2oc1=O (stereo not given), which Potency is on record?
Answer: inconclusive: 29.1 µM [falling, single point]

Question: With Cc1ccc(N=C(NOCc2ccc(Cl)cc2Cl)c2nonc2N)c(C)c1 as the compound, how does the Potency read?
Answer: active: 23.1 µM

Question: For CCOC(=O)c1cc(NC(=O)c2ccoc2C)cc(C(=O)OCC)c1, which Potency is on record?
Answer: inconclusive: 29.1 µM [falling, single point]

Question: With O=C(Nc1ccc(N2CCCCC2)c(Cl)c1)c1cccnc1 as the compound, how does the Potency read?
Answer: inconclusive: 6.31 µM [activator, full curve]

Question: With CCC(C)(C)C1CCc2[nH]nc(C(=O)O)c2C1 (stereo not given) as the compound, how does the Potency read?
Answer: inconclusive: 6.51 µM [falling, partial curve, poor fit]

Question: Which “activity change, negative = inhibition” value does the source give for O=C(/C=C/c1cccs1)Nc1ccc(N2CCOCC2)c(S(=O)(=O)Nc2ccccc2Cl)c1 here?
Answer: inactive: -5.38%

Question: For Cc1cccc(N2CCN(S(=O)(=O)c3ccc4[nH]c5c(c4c3)CCCCC5)CC2)c1C, which Potency is on record?
Answer: inconclusive: 18.4 µM [falling, single point]

Question: Which “activity change, negative = inhibition” value does the source give for Cc1cccc(C(=O)NCC(=O)OCc2cc(=O)n3nc(C4CCCCC4)sc3n2)c1 here?
Answer: inactive: 18.1%

Question: With COc1cc(CN2CCN(Cc3ccc(C(F)(F)F)cc3)CC2)cc(OC)c1OC as the compound, how does the Potency read?
Answer: inconclusive: 18.4 µM [falling, partial curve]

Question: For COc1ccc(C(=O)NC(=S)Nc2ccccc2[N+](=O)[O-])cc1OC, which Potency is on record?
Answer: inconclusive: 23.1 µM [activator, partial curve, poor fit]

Question: Which Potency does the source give for O=C(Nc1ccc2c(c1)OCO2)c1cnccn1 here?
Answer: inconclusive: 5.8 µM [activator, full curve]

Question: With O=Nc1c2ccc[nH]c-2c2ccc([N+](=O)[O-])cc12 as the compound, how does the Potency read?
Answer: inconclusive: 29.1 µM [activator, single point]

Question: For CC1CCC(Nc2nc3c(-c4cccc(C(F)(F)F)c4)nnn3c3ccccc23)CC1 (stereo not given), which “activity change, negative = inhibition” value is on record?
Answer: inactive: 10.5%

Question: With COc1cccc(N2CCN(C(=O)Nc3ccc4c(c3)NC(=O)CO4)CC2)c1 as the compound, how does the Potency read?
Answer: inconclusive: 20.6 µM [falling, single point]

Question: For O=c1[nH]c(SCc2ccccc2F)nc2ccccc12, which Potency is on record?
Answer: inconclusive: 0.0291 µM [falling, full curve, poor fit]

Question: Which “activity change, negative = inhibition” value does the source give for CC(C)OC(=O)c1c(NC(=O)C2c3ccccc3Oc3ccccc32)sc2c1CCCC2 here?
Answer: inactive: 5.96%

Question: Which Potency does the source give for COc1cccc(CNC(=O)c2cc3oc4ccccc4c3n2C)c1OC here?
Answer: inconclusive: 23.1 µM [activator, single point]

Question: For Cc1cc(C)nc(N/N=C/c2ccccc2)n1, which Potency is on record?
Answer: inconclusive: 4.11 µM [activator, full curve, poor fit]

Question: Which Potency does the source give for O=[N+]([O-])c1cccc(C=NNc2ccc3ccccc3n2)c1O here?
Answer: inconclusive: 13 µM [falling, partial curve, poor fit]

Question: Which Potency does the source give for CC(C)N(Cc1ccccc1)C(=O)COC(=O)c1ccc(S(=O)(=O)N2CCOCC2)cc1 here?
Answer: inconclusive: 25.9 µM [activator, partial curve, poor fit]

Question: For CCOC(=O)Cc1c(Sc2ccccc2)c2ccccc2n1C, which Potency is on record?
Answer: active: 23.1 µM

Question: With Cc1ccc(OCc2cc(C(=O)N(C)CCc3ccccc3)no2)cc1C as the compound, how does the Potency read?
Answer: inconclusive: 7.31 µM [activator, partial curve]

Question: Which “activity change, negative = inhibition” value does the source give for Cc1ccc(NC(=O)Cn2ccn(-c3ccccc3)c(=O)c2=O)cc1 here?
Answer: inactive: -6.93%

Question: With CCN(C(=O)CSc1nc2ccccc2[nH]1)c1ccccc1 as the compound, how does the Potency read?
Answer: inconclusive: 0.116 µM [activator, full curve, poor fit]

Question: With Cc1ccc(S(=O)(=O)N2CC3CCCN3c3ccc(C(F)(F)F)cc32)cc1 (stereo not given) as the compound, how does the Potency read?
Answer: inconclusive: 0.231 µM [falling, full curve, poor fit]

Question: Which Potency does the source give for O=C(Nc1ccc2c(c1)OCO2)c1ccc2c(c1)OCO2 here?
Answer: inconclusive: 1.46 µM [activator, full curve]

Question: Which Potency does the source give for Oc1ccc(Nc2ncnc3scc(-c4ccccc4)c23)cc1 here?
Answer: inconclusive: 5.17 µM [falling, partial curve, poor fit]

Question: Which Potency does the source give for O=C1CCCN1CCCNCCCn1cnc2c(OCc3ccccc3)ncnc21 here?
Answer: inconclusive: 5.8 µM [activator, partial curve, poor fit]

Question: For Cc1ccc2cc(C#N)c(NCCNC(=O)C3CCC3)nc2c1C, which Potency is on record?
Answer: inconclusive: 9.2 µM [falling, partial curve]

Question: For COc1cccc(NC(=O)N2CCN(c3ccc(C(F)(F)F)cn3)CC2)c1, which Potency is on record?
Answer: inconclusive: 23.1 µM [falling, single point]

Question: Which “activity change, negative = inhibition” value does the source give for CC1CN(C(=O)N2CCCCC2)CCN1C(=O)N1CCCCC1 (stereo not given) here?
Answer: inactive: 18.5%

Question: With COc1ccc(NC(=O)CCNS(=O)(=O)c2ccc(NC(C)=O)cc2)cc1Cl as the compound, how does the “activity change, negative = inhibition” value read?
Answer: inactive: 4.45%

Question: For CCSc1ccc([C@@H]2[C@H]3C(=O)N(C)C(=O)[C@H]3[C@]3(C(=O)OC)CCCCN23)cc1, which Potency is on record?
Answer: inconclusive: 29.1 µM [falling, single point]

Question: With COc1cccc(OC)c1C(=O)Nc1cccc(-c2nc3ccccc3[nH]2)c1 as the compound, how does the Potency read?
Answer: inconclusive: 5.8 µM [activator, partial curve]

Question: With CC1CCCCN1S(=O)(=O)c1ccc(C(=O)Nc2nnc(-c3cccs3)o2)cc1 (stereo not given) as the compound, how does the Potency read?
Answer: active: 13 µM

Question: Which Potency does the source give for CCn1ncc(Br)c1C(=O)Nc1c(C)nn(Cc2c(F)c(F)c(F)c(F)c2F)c1C here?
Answer: inconclusive: 14.6 µM [falling, partial curve, poor fit]

Question: With Nc1nc(-c2nc3ccccc3[nH]2)cs1 as the compound, how does the Potency read?
Answer: inconclusive: 0.366 µM [activator, full curve]

Question: With FC(F)(F)c1cccc(NC(=S)NCC2COc3ccccc3O2)c1 (stereo not given) as the compound, how does the Potency read?
Answer: inconclusive: 25.9 µM [falling, single point]

Question: For CN(CC(=O)Nc1ccc(Cl)cc1)C(=O)CNC(=O)c1ccc2ccccc2c1, which Potency is on record?
Answer: inconclusive: 11.6 µM [activator, partial curve]

Question: For CCn1nc(C)c(C(=O)Nc2cc(Oc3ccc(Cl)cc3)cc([N+](=O)[O-])c2)c1C, which Potency is on record?
Answer: inconclusive: 20.6 µM [falling, single point]

Question: With Cc1cnc(-c2nnc(N(C)C(=O)C3CCCO3)s2)cn1 (stereo not given) as the compound, how does the “activity change, negative = inhibition” value read?
Answer: inactive: 26.7%

Question: For O=C(CC1NCCc2ccccc21)Nc1cccc(Cl)c1 (stereo not given), which Potency is on record?
Answer: inconclusive: 25.9 µM [activator, single point]

Question: For CC(=O)c1ccc(Nc2cc(C)nc3nc(Cc4ccc(Cl)cc4)nn23)cc1, which Potency is on record?
Answer: inconclusive: 25.9 µM [falling, single point]

Question: With O=C(COc1ccc(S(=O)(=O)NC2CCCCC2)cc1Cl)NCc1ccc2c(c1)OCO2 as the compound, how does the Potency read?
Answer: inconclusive: 23.1 µM [falling, partial curve]

Question: With Clc1ccc(CSc2nnc(-c3ccncc3)o2)c(Cl)c1 as the compound, how does the Potency read?
Answer: inconclusive: 29.1 µM [falling, single point]

Question: With CCn1c(C)[n+](CC)c2ccc(C(=O)N(C)c3ccccc3)cc21 as the compound, how does the “activity change, negative = inhibition” value read?
Answer: inactive: 12.1%

Question: Which Potency does the source give for Cc1ccc2nc(N3C(=O)CNC3=S)sc2c1 here?
Answer: inconclusive: 1.84 µM [activator, partial curve]

Question: Which Potency does the source give for CCc1ccc2oc(C(=O)Nc3cc(C)ccc3C)cc(=O)c2c1 here?
Answer: inconclusive: 5.8 µM [falling, partial curve, poor fit]

Question: For CC(=O)Nc1cccc(NC(=O)c2cccc(OCc3ccccc3)c2)c1, which Potency is on record?
Answer: inconclusive: 29.1 µM [falling, partial curve, poor fit]

Question: Which Potency does the source give for Cn1c(=O)c2c(ncn2CCOc2ccc(F)cc2)n(C)c1=O here?
Answer: inconclusive: 20.6 µM [falling, partial curve, poor fit]

Question: For CCN(C[C@H]1N[C@@](Cc2ccccc2)(C(=O)OC)[C@H]2C(=O)N(Cc3ccccc3)C(=O)[C@@H]12)C(=O)Nc1ccc(C)cc1, which “activity change, negative = inhibition” value is on record?
Answer: inactive: -19.7%

Question: For CN(C)NC(=O)c1ccc([N+](=O)[O-])s1, which Potency is on record?
Answer: inconclusive: 25.9 µM [falling, single point]

Question: With CCCCN(CC)S(=O)(=O)c1ccc(C(=O)Nc2nnc(COC)o2)cc1 as the compound, how does the Potency read?
Answer: inconclusive: 29.1 µM [falling, single point]

Question: Which Potency does the source give for Cc1ccc(NS(=O)(=O)c2cc(-c3n[nH]c(=O)c4ccccc34)ccc2C)cc1 here?
Answer: inconclusive: 18.4 µM [falling, single point]

Question: With COc1cc2c(cc1OC)CN(C(=O)CSc1nc(C)cc(C)c1C#N)CC2 as the compound, how does the Potency read?
Answer: inconclusive: 7.31 µM [falling, partial curve, poor fit]

Question: Which Potency does the source give for CC1(C)CC(N2CCCC2)=CC(=[N+]2CCCCC2)C1 here?
Answer: active: 4.11 µM

Question: With O=C(c1cc2ccccc2o1)N1CCOCC1 as the compound, how does the Potency read?
Answer: inconclusive: 18.4 µM [activator, partial curve]

Question: With O=C(NCCc1c[nH]c2ccccc12)/C(=C\c1cccnc1)NC(=O)c1ccccc1F as the compound, how does the Potency read?
Answer: inconclusive: 1.84 µM [activator, partial curve]

Question: Which Potency does the source give for COc1cccc(C(=O)NCC(=O)OCc2cc(=O)n3nc(C)sc3n2)c1 here?
Answer: inconclusive: 7.31 µM [activator, partial curve, poor fit]

Question: Which Potency does the source give for COc1ccc(C(=O)N/C(=C\c2ccc([N+](=O)[O-])cc2)C(=O)NC(CCSC)C(=O)O)cc1 (stereo not given) here?
Answer: inconclusive: 4.61 µM [activator, partial curve, poor fit]

Question: For O=[N+]([O-])c1ccc(Oc2ccc(S(=O)(=O)Nc3ccccc3)cc2)cc1, which Potency is on record?
Answer: active: 18.4 µM
